Results: the supplement of paper PMC12819154, “High-throughput peptide-centric local stability assay extends protein–ligand identification to membrane proteins, tissues and bacteria” (Nature Structural & Molecular Biology, 2025)
The list shows a part of the results. Most values lie at the level of the controls, where differences are scatter.

Chains of the proteins cited; added tags and fusions are not shown. Lines headed by an entry give the natural chain unless they say otherwise; changes in a name come on top.
UniProt Q9CS74: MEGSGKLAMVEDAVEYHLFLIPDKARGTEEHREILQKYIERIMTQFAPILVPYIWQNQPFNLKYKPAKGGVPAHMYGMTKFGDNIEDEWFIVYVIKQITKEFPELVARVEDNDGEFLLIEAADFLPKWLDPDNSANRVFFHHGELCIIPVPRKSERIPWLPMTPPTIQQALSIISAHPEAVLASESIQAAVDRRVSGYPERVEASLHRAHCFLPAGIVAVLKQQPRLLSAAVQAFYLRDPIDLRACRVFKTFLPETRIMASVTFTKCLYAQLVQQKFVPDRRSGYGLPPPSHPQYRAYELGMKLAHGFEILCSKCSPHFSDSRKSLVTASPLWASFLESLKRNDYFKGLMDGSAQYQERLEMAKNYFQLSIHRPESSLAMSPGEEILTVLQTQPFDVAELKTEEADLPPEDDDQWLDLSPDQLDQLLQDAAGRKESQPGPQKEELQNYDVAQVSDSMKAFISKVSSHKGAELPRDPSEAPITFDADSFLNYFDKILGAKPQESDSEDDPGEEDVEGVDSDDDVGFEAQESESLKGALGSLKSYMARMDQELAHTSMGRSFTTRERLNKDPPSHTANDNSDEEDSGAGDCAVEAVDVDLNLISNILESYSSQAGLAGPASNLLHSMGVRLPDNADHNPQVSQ
UniProt Q9CYA0: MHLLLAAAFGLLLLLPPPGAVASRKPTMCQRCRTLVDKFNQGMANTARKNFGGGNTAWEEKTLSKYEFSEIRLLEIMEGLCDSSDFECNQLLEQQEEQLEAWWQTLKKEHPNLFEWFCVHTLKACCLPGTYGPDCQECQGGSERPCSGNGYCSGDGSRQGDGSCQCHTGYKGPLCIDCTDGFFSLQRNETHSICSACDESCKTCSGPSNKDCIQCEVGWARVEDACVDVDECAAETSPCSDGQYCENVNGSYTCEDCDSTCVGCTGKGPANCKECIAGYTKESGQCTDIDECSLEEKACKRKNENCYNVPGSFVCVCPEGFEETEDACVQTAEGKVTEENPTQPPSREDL
UniProt Q9CZJ1: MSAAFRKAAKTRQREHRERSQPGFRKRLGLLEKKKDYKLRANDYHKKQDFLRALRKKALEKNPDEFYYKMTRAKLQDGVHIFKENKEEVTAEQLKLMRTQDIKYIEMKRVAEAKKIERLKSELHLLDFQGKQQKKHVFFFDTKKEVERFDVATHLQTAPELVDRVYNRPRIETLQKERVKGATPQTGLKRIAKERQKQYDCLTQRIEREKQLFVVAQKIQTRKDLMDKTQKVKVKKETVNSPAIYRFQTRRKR
UniProt Q9CR84: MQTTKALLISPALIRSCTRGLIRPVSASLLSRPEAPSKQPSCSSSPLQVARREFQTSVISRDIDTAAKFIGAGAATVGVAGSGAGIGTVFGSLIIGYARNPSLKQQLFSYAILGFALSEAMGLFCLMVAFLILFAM
UniProt Q9CZ44: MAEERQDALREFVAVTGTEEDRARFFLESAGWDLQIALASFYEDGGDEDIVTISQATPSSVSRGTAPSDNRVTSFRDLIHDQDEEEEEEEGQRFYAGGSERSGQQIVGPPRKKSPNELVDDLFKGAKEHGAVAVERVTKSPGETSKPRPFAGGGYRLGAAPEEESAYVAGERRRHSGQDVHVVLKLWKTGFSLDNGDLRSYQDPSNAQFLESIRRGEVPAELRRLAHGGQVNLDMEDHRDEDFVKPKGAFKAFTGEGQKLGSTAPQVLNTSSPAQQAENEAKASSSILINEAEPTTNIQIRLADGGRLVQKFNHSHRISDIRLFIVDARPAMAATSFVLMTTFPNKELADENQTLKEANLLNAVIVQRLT
UniProt Q9CY97: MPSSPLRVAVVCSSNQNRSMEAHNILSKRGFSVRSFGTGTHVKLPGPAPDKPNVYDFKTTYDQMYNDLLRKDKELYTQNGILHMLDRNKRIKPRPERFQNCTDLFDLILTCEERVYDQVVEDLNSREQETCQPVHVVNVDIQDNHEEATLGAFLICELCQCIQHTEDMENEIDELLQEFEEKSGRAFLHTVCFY
UniProt Q9CZ91: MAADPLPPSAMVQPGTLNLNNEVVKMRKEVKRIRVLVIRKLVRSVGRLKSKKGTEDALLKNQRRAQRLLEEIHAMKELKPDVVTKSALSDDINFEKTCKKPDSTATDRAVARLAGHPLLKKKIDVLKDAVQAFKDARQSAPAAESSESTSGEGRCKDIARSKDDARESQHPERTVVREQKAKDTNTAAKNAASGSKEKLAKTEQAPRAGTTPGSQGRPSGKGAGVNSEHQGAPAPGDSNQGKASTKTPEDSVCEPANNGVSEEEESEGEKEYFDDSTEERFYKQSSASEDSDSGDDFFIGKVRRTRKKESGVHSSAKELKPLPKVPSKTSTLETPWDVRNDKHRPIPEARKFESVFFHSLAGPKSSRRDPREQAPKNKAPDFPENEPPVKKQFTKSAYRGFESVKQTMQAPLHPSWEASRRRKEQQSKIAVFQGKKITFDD
UniProt Q9CXR4: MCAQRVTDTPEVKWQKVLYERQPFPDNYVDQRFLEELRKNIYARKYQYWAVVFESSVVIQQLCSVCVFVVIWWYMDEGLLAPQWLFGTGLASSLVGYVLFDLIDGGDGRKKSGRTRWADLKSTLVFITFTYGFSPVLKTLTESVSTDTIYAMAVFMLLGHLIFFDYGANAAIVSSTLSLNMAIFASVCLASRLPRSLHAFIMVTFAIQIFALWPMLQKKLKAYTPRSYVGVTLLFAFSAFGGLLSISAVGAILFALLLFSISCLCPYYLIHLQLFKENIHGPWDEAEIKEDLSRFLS
UniProt Q9CZ13: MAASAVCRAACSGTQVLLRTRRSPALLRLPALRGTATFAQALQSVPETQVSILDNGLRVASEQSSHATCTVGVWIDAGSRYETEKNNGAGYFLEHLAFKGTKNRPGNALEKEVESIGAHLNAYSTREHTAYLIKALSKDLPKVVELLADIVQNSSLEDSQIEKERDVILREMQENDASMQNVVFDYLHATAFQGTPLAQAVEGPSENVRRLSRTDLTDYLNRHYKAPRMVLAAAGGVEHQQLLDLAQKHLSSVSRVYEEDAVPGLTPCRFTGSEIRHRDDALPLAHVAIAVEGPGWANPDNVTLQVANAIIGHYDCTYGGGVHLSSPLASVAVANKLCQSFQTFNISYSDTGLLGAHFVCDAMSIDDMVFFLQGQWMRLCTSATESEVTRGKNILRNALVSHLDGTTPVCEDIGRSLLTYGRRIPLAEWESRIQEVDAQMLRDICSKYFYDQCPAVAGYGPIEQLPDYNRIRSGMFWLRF
UniProt Q9CSN1: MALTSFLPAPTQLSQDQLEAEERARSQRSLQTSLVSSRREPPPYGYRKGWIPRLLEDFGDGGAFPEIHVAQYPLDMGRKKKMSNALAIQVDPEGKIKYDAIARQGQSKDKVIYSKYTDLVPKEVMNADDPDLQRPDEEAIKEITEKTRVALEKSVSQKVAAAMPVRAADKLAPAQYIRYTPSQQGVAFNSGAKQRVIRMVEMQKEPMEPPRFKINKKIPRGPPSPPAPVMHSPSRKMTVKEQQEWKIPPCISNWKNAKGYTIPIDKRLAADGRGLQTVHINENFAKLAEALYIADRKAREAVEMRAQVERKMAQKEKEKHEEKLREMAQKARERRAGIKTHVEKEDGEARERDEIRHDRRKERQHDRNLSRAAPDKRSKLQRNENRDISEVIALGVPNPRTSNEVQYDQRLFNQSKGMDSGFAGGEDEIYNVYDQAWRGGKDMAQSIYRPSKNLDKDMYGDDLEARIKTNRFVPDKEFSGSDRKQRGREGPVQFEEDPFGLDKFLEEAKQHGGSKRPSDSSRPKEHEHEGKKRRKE
UniProt Q9CZP0: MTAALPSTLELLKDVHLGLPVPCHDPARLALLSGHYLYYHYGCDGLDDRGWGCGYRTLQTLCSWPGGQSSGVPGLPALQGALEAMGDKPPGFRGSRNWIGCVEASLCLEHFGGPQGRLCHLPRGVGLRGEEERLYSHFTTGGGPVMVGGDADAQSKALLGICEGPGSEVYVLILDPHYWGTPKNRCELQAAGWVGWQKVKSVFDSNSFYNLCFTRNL
UniProt Q9CWV6: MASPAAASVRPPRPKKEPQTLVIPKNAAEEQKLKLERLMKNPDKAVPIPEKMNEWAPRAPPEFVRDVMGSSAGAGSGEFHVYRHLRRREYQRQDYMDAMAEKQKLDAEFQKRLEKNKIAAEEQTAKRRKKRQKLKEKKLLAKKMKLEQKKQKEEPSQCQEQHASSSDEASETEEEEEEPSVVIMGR
UniProt Q9CSU0: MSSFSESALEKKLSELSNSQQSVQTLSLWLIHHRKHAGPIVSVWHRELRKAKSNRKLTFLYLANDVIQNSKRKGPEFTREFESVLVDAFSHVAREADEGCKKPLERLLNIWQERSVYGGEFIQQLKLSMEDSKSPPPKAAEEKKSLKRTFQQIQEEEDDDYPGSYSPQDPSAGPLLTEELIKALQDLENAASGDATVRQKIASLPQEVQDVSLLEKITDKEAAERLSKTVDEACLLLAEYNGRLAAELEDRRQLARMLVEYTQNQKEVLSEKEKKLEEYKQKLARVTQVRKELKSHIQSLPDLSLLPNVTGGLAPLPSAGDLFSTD
UniProt Q9CWX4: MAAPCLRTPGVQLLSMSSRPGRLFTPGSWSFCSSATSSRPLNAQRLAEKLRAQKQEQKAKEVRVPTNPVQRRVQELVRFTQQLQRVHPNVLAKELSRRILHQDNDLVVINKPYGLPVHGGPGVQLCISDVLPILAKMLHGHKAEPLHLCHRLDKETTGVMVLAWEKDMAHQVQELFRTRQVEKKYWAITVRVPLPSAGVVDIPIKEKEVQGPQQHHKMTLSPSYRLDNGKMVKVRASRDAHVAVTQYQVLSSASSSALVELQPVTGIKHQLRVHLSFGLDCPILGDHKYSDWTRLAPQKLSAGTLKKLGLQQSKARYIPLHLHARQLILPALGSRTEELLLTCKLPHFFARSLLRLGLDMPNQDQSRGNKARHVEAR
UniProt Q9CYX7: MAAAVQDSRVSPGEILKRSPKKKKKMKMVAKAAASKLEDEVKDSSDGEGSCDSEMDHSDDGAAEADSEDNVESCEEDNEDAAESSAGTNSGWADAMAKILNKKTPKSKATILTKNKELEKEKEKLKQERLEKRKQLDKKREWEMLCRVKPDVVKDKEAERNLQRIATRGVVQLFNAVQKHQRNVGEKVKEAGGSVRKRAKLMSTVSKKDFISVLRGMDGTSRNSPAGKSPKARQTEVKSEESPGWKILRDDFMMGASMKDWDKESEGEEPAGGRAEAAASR
UniProt Q9CZV8: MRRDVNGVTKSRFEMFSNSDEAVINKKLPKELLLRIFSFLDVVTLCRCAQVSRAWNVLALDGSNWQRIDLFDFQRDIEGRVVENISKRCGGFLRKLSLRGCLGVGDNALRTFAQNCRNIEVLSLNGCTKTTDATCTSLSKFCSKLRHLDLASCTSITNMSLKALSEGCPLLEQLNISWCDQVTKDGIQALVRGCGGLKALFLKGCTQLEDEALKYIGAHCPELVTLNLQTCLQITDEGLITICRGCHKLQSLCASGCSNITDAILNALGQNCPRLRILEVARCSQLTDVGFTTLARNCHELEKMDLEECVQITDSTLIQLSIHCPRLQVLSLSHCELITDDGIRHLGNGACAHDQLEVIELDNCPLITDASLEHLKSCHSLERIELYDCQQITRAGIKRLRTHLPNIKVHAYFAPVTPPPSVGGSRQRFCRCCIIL
UniProt Q9D0R4: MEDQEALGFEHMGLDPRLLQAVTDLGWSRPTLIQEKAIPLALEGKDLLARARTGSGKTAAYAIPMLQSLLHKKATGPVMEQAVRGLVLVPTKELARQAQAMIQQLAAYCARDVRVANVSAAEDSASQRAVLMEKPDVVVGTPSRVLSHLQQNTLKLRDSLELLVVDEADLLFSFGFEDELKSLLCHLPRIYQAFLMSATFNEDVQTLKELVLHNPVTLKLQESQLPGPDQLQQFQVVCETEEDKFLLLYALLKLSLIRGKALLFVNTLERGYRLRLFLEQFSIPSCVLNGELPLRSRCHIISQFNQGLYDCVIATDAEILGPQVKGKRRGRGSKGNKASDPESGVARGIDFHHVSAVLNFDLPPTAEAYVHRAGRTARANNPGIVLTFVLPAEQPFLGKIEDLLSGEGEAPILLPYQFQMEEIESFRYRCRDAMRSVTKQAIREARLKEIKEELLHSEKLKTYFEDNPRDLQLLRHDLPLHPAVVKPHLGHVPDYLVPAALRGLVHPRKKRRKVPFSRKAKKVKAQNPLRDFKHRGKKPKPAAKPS
UniProt Q9CZ83, whole entry: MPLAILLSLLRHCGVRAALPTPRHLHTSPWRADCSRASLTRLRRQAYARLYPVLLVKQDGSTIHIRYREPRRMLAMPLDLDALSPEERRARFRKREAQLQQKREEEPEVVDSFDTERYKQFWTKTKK
UniProt Q9CWR1: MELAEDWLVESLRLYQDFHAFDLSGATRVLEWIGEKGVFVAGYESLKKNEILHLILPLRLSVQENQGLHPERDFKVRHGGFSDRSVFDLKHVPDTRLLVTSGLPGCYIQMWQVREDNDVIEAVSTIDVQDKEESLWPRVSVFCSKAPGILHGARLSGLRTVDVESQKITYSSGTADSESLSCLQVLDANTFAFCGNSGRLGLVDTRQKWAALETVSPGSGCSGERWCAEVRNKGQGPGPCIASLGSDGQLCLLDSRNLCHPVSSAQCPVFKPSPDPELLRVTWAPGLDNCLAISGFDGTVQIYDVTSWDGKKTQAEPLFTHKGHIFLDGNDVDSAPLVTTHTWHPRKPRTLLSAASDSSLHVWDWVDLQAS

Compound: CN[C@@H]1C[C@H]2O[C@@](C)([C@@H]1OC)n1c3ccccc3c3c4c(c5c6ccccc6n2c5c31)C(=O)NC4 [staurosporine]
Experiment: log2 fold change of tryptic peptide abundance, ligand vs vehicle (limited proteolysis) (log2 ratio); higher = more trypsin-susceptible (destabilized)
Conditions: ligand concentration: 20 uM; sample: mouse liver crude lysate; replicate design: treated separately

| Target | log2 fold change |
| --- | --- |
| UniProt Q9CS74 (peptide sequence: CSPHFSDSR, peptide start residue: 315) | -0.292 |
| UniProt Q9CWJ9 (peptide sequence: NKDLPESALR, peptide start residue: 407) | 0.383 |
| UniProt Q9CYA0 (peptide sequence: YEFSEIR, peptide start residue: 66) | 0.126 |
| UniProt Q9CTH6 (peptide sequence: GTYADDCLVQR, peptide start residue: 138) | 0.34 |
| UniProt Q9CZJ1 (peptide sequence: ALEKNPDEFYYK, peptide start residue: 58) | -0.387 |
| UniProt Q9CR84 (peptide sequence: ALLISPALIR, peptide start residue: 6) | 0.131 |
| UniProt Q9CZ44 (peptide sequence: EANLLNAVIVQR, peptide start residue: 357) | -0.519 |
| UniProt Q9CY97 (peptide sequence: SMEAHNILSK, peptide start residue: 19) | 0.236 |
| UniProt Q9CUB6 (peptide sequence: KRDEELAK, peptide start residue: 430) | 0.0597 |
| UniProt Q9D0A0 (peptide sequence: NSESVTPNPR, peptide start residue: 176) | 0.395 |
| UniProt Q9CZ91 (peptide sequence: SALSDDINFEK, peptide start residue: 86) | 0.266 |
| UniProt Q9CZB0 (peptide sequence: WSLPMALSVCHR, peptide start residue: 61) | -0.632 |
| UniProt Q9CXR4 (peptide sequence: FLEELRK, peptide start residue: 33) | 0.276 |
| UniProt Q9CZX8 (peptide sequence: VLQALEGLK, peptide start residue: 103) | 0.096 |
| UniProt Q9CZ13 (peptide sequence: IQEVDAQMLR, peptide start residue: 433) | -0.326 |
| UniProt Q9CSN1 (peptide sequence: NLDKDMYGDDLEAR, peptide start residue: 453) | -0.171 |

| Target | log2 fold change |
| --- | --- |
| UniProt Q9D024 (peptide sequence: IMNEEDPEK, peptide start residue: 444) | 0.144 |
| UniProt Q9CZP0 (peptide sequence: DVHLGLPVPCHDPAR, peptide start residue: 14) | 0.107 |
| UniProt Q9CWV6 (peptide sequence: IAAEEQTAKR, peptide start residue: 118) | 0.272 |
| UniProt Q9CSU0 (peptide sequence: ITDKEAAER, peptide start residue: 217) | -0.104 |
| UniProt Q9CWX4 (peptide sequence: VPTNPVQR, peptide start residue: 64) | 0.172 |
| UniProt Q9CYX7 (peptide sequence: LMSTVSKK, peptide start residue: 201) | -0.27 |
| UniProt Q9CZV8 (peptide sequence: GCLGVGDNALR, peptide start residue: 100) | -0.257 |
| UniProt Q9D0D4 (peptide sequence: VQGTPLASK, peptide start residue: 98) | -0.278 |
| UniProt Q9CS00 (peptide sequence: GISHLEEK, peptide start residue: 242) | -0.181 |
| UniProt Q9CWT3 (peptide sequence: YSVEEAIHK, peptide start residue: 140) | 0.12 |
| UniProt Q9D0R4 (peptide sequence: TAAYAIPMLQSLLHKK, peptide start residue: 58) | 0.174 |
| UniProt Q9CZ83 (peptide sequence: REEEPEVVDSFDTER, peptide start residue: 103) | -0.109 |
| UniProt Q9CVB6 (peptide sequence: ELQAHGADELLKR, peptide start residue: 66) | -0.593 |
| UniProt Q9CXT7 (peptide sequence: LLELATQPART, peptide start residue: 256) | 0.0969 |
| UniProt Q9CWR1 (peptide sequence: KNEILHLILPLR, peptide start residue: 48) | -0.0746 |

2 records picked at random from the list so far:

| Target | log2 fold change |
| --- | --- |
| UniProt Q9CSU0 (peptide sequence: ITDKEAAER, peptide start residue: 217) | -0.104 |
| UniProt Q9CZ91 (peptide sequence: SALSDDINFEK, peptide start residue: 86) | 0.266 |
